Measured data: PubChem BioAssay AID1053208 (Peter MacCallum Cancer Centre, 2014)

Test: 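Synthetic lethal interactions between gene loss and doxorubicin in osteosarcoma cells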 (primary screen)
Cells: mouse osteosarcoma cells, early-passage culture from an engineered mouse model of fibroblastic bone tumour
Reagents: siRNA pool against mouse genes, 40 nM
Time to read-out: about 120 h (48 h before drug, then 72 h with drug)
Treatment: doxorubicin 100 nM for 72 h, roughly 30-40% inhibitory dose
Measurement: 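Viability read as ATP luminescence after 72 h of 100 nM doxorubicin or none, duplicate wells averaged, scaled to non-targeting siRNA, then expressed as robust z-scores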
Scale: viability z-score with doxorubicin and doxorubicin viability vs non-targeting: higher = more viable cells under doxorubicin; viability z-score without drug: higher = more viable cells with knock-down alone; z-score of drug to no-drug ratio: higher = less drug sensitisation by knock-down
Call rule: 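a pool counts as active when its viability z-score with doxorubicin is -2 or below and its z-score without drug lies between -2 and 2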
This is an unselected part of about 17,000 deposited reagents. 788 of all reagents (4.7%) count as active. 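Calls rest on z-score classes alone; an extra cut-off of viability at most 70% of control was not applied to them.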

gene	combined z-score class	viability z-score with doxorubicin	viability z-score without drug	z-score of drug to no-drug ratio	doxorubicin viability vs non-targeting	Call
Mzt1	no change with or without drug	-0.22	0.67	-0.56	0.92	inactive
Or2y16	low cell count without drug only	-1.24	-2.02	0.22	0.83	inactive
Errfi1	high cell count with doxorubicin only	2.02	0.67	1.69	1.12	inactive
Gabrq	no change with or without drug	1.35	0.67	1.01	1.06	inactive
Scly	no change with or without drug	-1.69	-0.67	-1.24	0.79	inactive
Sp5	no change with or without drug	0.22	-0.17	0.45	0.96	inactive
Vdac1	no change with or without drug	-0.22	-0.84	0.45	0.92	inactive
Prkaa1	no change with or without drug	-0.11	0.17	-0.11	0.93	inactive
Qsox1	no change with or without drug	-1.57	0.51	-1.8	0.8	inactive
Grb14	no change with or without drug	-0.45	-0.51	0	0.9	inactive
Cxcr5	no change with or without drug	0.22	-0.17	0.45	0.96	inactive
Timm23	low cell count with doxorubicin only	-2.92	-1.85	-1.91	0.68	active
Tekt2	no change with or without drug	0.67	-1.18	1.8	1	inactive
Polr2b	low cell count with doxorubicin only	-2.7	-0.84	-2.25	0.7	active
D3Ertd751e	no change with or without drug	0	0.34	-0.11	0.94	inactive
Psen2	no change with or without drug	0	0.17	0	0.94	inactive
Mtmr4	no change with or without drug	-1.24	0.84	-1.69	0.83	inactive
Aaas	no change with or without drug	0.45	0.84	0	0.98	inactive
Clmn	no change with or without drug	-1.35	-0.17	-1.24	0.82	inactive
Ranbp3l	no change with or without drug	-0.45	-0.51	0	0.9	inactive
Prkaca	no change with or without drug	0.22	1.35	-0.56	0.96	inactive
Zfp438	no change with or without drug	1.12	0.51	0.9	1.04	inactive
Selenop	no change with or without drug	-1.35	-0.17	-1.24	0.82	inactive
Gm5108	no change with or without drug	-0.67	-1.52	0.45	0.88	inactive
Plekhj1	no change with or without drug	1.12	1.85	0	1.04	inactive
Aggf1	no change with or without drug	1.57	0.51	1.35	1.08	inactive
1700092C17Rik	no change with or without drug	0.9	0.51	0.67	1.02	inactive
Tcerg1l	no change with or without drug	0.22	0.84	-0.22	0.96	inactive
Cdh10	no change with or without drug	0.9	-0.17	1.24	1.02	inactive
Slc1a1	no change with or without drug	0.11	-0.84	0.9	0.95	inactive
Acadm	no change with or without drug	1.24	-0.17	1.57	1.05	inactive
Pdcd1	no change with or without drug	-1.35	0.51	-1.57	0.82	inactive
Snrpc	no change with or without drug	0	0.34	-0.11	0.94	inactive
Or6z1	no change with or without drug	0.56	-0.34	0.9	0.99	inactive
Kcna1	no change with or without drug	-0.9	0.17	-0.9	0.86	inactive
Ccdc180	no change with or without drug	-1.57	-0.17	-1.46	0.8	inactive
Fcgbpl1	no change with or without drug	1.69	1.18	1.01	1.09	inactive
Mapk3	no change with or without drug	0.79	1.69	-0.22	1.01	inactive
Pspc1	high cell count with and without drug	3.71	3.37	1.35	1.27	inactive
Chd9	no change with or without drug	0.45	-0.17	0.67	0.98	inactive
Oosp1	no change with or without drug	0.34	0.84	-0.11	0.97	inactive
Tlnrd1	no change with or without drug	0.45	0.17	0.45	0.98	inactive
1700030K09Rik	no change with or without drug	0	0.51	-0.22	0.94	inactive
Ap3d1	high cell count without drug only	1.12	2.36	-0.34	1.04	inactive
Zkscan5	high cell count with and without drug	2.36	2.02	1.01	1.15	inactive
Zfp369	no change with or without drug	-1.35	0.51	-1.57	0.82	inactive
Golga2	no change with or without drug	-1.57	0.17	-1.69	0.8	inactive
Krt90	no change with or without drug	-0.45	-0.34	-0.11	0.9	inactive
Khdrbs2	no change with or without drug	-1.35	-0.84	-0.79	0.82	inactive
Tpr	no change with or without drug	-1.12	-0.51	-0.79	0.84	inactive

Part of the list above, limited to “z-score of drug to no-drug ratio”:
1700092C17Rik: 0.67
Tcerg1l: -0.22
Cdh10: 1.24
Slc1a1: 0.9
Acadm: 1.57
